Out of some 340,000 compounds screened, about 170 (0.05%) were called active. Inconclusive means that the source gave no clear call. Such entries were picked first, then a sample of the others. The call rests on the fitted dose curve; in most records, active means well fitted inhibition curve with a large enough effect in the signal ratio, with a control signal flat (not every such curve was filed as active); inconclusive means small, poorly fitted or top-dose-only effect, or effect the other way, or a change in a side signal; inactive means flat fitted curve, though single readings scatter; the % refers to the signal ratio. A potency beside an inconclusive call is a rough fit, not a confirmed value.
assay: qHTS Assay to Find Inhibitors of Chronic Active B-Cell Receptor Signaling; conditions: ABC-DLBCL IkBa-CBG/CBR reporter, luminescence ratio (green luciferase fused to IkBa over red control in TMD8 lymphoma cells), 4 h; activity change, negative = inhibition: at 46.1 µM (top of the series);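 on activity change, negative = inhibition: plate controls were basal doxycycline-induced cells for no effect and cells given 10 µM MG132 for full effect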
How it was run: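 TMD8 human ABC-DLBCL cells with doxycycline-inducible IκBα–green luciferase fusion and unfused red luciferase, in 0.5% FBS medium; compounds up to 46 uM, 4 h at 37C. Green/red luminescence ratio, filter-overlap corrected, fitted to concentration-response curves.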
Potency means the concentration at half of the fitted maximal effect.

Q: For `O=C(Nc1ccc(Cl)cc1)NC1CCCC1Cc1ccco1` (stereo not given), which activity change, negative = inhibition is on record?
A: inconclusive: -4.46%

Q: With `Cc1ccc(CNC(=O)Cn2ccc3cc(S(=O)(=O)N4CCCC4)ccc32)o1` as the compound, how does the activity change, negative = inhibition read?
A: inactive

Q: For `Cc1cc(C)n(-c2nc3ccccc3[nH]c2=O)n1`, which Potency is on record?
A: inconclusive: 9.2 µM [falling, partial curve]

Q: With `S=C(Nc1ccc2nsnc2c1)NC1CCCCC1` as the compound, how does the activity change, negative = inhibition read?
A: inconclusive: -22.4%

Q: With `COc1cc(/C=C(\C#N)c2nnc(N3CCOCC3)n2-c2ccccc2)ccc1O` as the compound, how does the activity change, negative = inhibition read?
A: inconclusive: 19.2%

Q: With `COC(=O)Cn1ncc2c3ccccc3n(C)c2c1=O` as the compound, how does the activity change, negative = inhibition read?
A: inconclusive: 2.99%

Q: For `COc1cc2c(cc1OC)C(COc1ccc(C(C)C)cc1)NCC2` (stereo not given), which activity change, negative = inhibition is on record?
A: inactive

Q: For `CC(C#N)Sc1ncnc2sc3c(c12)CCC3` (stereo not given), which activity change, negative = inhibition is on record?
A: inactive

Q: For `O=C(CCN1C(=O)/C(=C/C=C/c2ccccc2)SC1=S)Nc1cccnc1`, which Potency is on record?
A: inconclusive: 4.61 µM [rising, full curve]

Q: With `Cc1cc(/C=C2/NC(=O)NC2=O)c(C)n1-c1ccc(N2CCOCC2)cc1` as the compound, how does the activity change, negative = inhibition read?
A: inconclusive: 3.61%

Q: For `COC(=O)c1sccc1NC(=O)c1c(-c2ccccc2)noc1C`, which activity change, negative = inhibition is on record?
A: inconclusive: 7.79%

Q: For `COc1ccc(OC)c(S(=O)(=O)NCc2cn3cccc(C)c3n2)c1`, which Potency is on record?
A: inconclusive: 16.4 µM [falling, single point]

Q: With `CCCCSCCCNC(=O)CS(=O)Cc1nc(-c2cccc(C)c2)oc1C` (stereo not given) as the compound, how does the activity change, negative = inhibition read?
A: inconclusive: -26.2%

Q: Which Potency does the source give for `Cc1ccsc1C(=O)Nc1nnc(-c2ccco2)o1` here?
A: inconclusive: 4.11 µM [falling, single point]

Q: For `CC(C)c1cc(-c2cc(-c3ccc(Cl)cc3)on2)nc(NCC2CC2)n1`, which activity change, negative = inhibition is on record?
A: inconclusive: 4.54%

Q: Which Potency does the source give for `O=C(Nc1ccc(Cl)cc1)c1ccc2nsnc2c1` here?
A: inconclusive: 6.31 µM [falling, full curve]

Q: With `CC(=O)Nc1ccc(S(=O)(=O)CCC#N)cc1` as the compound, how does the activity change, negative = inhibition read?
A: inconclusive: 20.9%

Q: For `Cn1cc(Br)c(C(=O)N/N=C/c2cccc(OC3CSC3)c2)n1`, which Potency is on record?
A: inconclusive: 18.4 µM [falling, partial curve]

Q: Which activity change, negative = inhibition does the source give for `Cc1nn(Cc2ccccc2Cl)c(C)c1NC(=O)c1noc(C(C)C)c1[N+](=O)[O-]` here?
A: inactive

Q: Which activity change, negative = inhibition does the source give for `CC(=O)c1sc(-c2ccc(Cl)cc2)nc1C` here?
A: inconclusive: 0.182%

Q: For `Cc1ccc(O)c(CCc2ccc(O)cc2)n1`, which activity change, negative = inhibition is on record?
A: inconclusive: -0.645%

Q: Which activity change, negative = inhibition does the source give for `CCOc1ccc(-c2nnn(CC(=O)NCc3ccco3)n2)cc1` here?
A: inconclusive: -0.895%

Q: Which Potency does the source give for `Cc1ccc(-n2ncc(C(=O)N3CCc4ccccc4C3)c2NC(=O)c2ccco2)cc1C` here?
A: inconclusive: 3.26 µM [rising, full curve]

Q: For `Cc1ccc(NC(=O)CN(C)C(=O)CNC(=O)c2ccc3c(c2)OCO3)cc1`, which activity change, negative = inhibition is on record?
A: inconclusive: 14.4%

Q: With `COc1cc(NC2c3ccccc3C(=O)N2Cc2ccccc2Cl)cc(OC)c1` (stereo not given) as the compound, how does the activity change, negative = inhibition read?
A: inconclusive: -4.48%

Q: For `COc1cc(CNCc2ccccn2)ccc1OCc1ccc(Cl)cc1`, which activity change, negative = inhibition is on record?
A: inconclusive: 8.45%

Q: With `NC(=O)CSc1nnc(-c2cnccn2)n1-c1ccccc1` as the compound, how does the activity change, negative = inhibition read?
A: inconclusive: 4.05%

Q: Which activity change, negative = inhibition does the source give for `COc1ccc(C2(CNC(=O)c3cc([N+](=O)[O-])cc([N+](=O)[O-])c3)CCCC2)cc1OC` here?
A: inconclusive: -17%

Q: Which activity change, negative = inhibition does the source give for `Cc1cc(OCC(=O)Nc2ccncc2)c(C)cc1Br` here?
A: inconclusive: 1.85%

Q: Which activity change, negative = inhibition does the source give for `CSC1=C(C#N)C(c2ccccc2Cl)C(C(C)=O)=C(C)N1` (stereo not given) here?
A: inconclusive: 12.8%

Q: With `N#Cc1c(SCC(=O)Nc2nccs2)sc2c(O)cc(=O)[nH]c12` as the compound, how does the Potency read?
A: inconclusive: 31.6 µM [rising, partial curve, poor fit]

Q: Which activity change, negative = inhibition does the source give for `Cc1ccc(-n2c(=O)c(C#N)cc3c(=O)n4ccccc4nc32)cc1` here?
A: inactive

Q: Which activity change, negative = inhibition does the source give for `Clc1ccc(C(Cn2ccnc2)OCc2c(Cl)cccc2Cl)c(Cl)c1` (stereo not given) here?
A: inconclusive: -13.1%

Q: With `CN1/C(=C\C(=O)c2cccs2)C(C)(C)c2ccccc21` as the compound, how does the activity change, negative = inhibition read?
A: inactive

Q: Which activity change, negative = inhibition does the source give for `COc1ccc(N2CC(NC(=O)C3CCCCC3)CC2=O)cc1` (stereo not given) here?
A: inactive

Q: With `Cc1ccccc1C(=O)NNC(=O)CSc1nc(-c2ccccc2)cc(=O)[nH]1` as the compound, how does the Potency read?
A: inconclusive: 12.6 µM [falling, partial curve]

Q: With `Cc1cccc2c1-c1sc(C(=O)NCCCN3CCc4ccccc4C3)cc1CO2` as the compound, how does the Potency read?
A: inconclusive: 15.8 µM [falling, partial curve]

Q: Which activity change, negative = inhibition does the source give for `Cc1ccc(NC(=O)c2nc[nH]c2C(=O)NCCCCNC(=O)c2[nH]cnc2C(=O)Nc2ccc(C)cc2)cc1` here?
A: inconclusive: 4.59%

Q: For `CCS(=O)(=O)CCSC(=N)N`, which Potency is on record?
A: inconclusive: 23.1 µM [falling, partial curve, poor fit]

Q: Which activity change, negative = inhibition does the source give for `Oc1ccc(Cl)cc1-c1cc(-c2cccc(Br)c2)n[nH]1` here?
A: inconclusive: -15.8%
